Data: article doi:10.1101/2024.08.19.608704
Read-outs that look alike come from different tables or passages of the source. Results are given in words; binding and its absence hold for the method and conditions named. In cells and extracts the contact can be indirect. Here binding means that the protein was enriched with, or labelled near, the bait; the list need not be complete.

B1: contactin-1 (protein, UniProt P12960 21-1001)
chain: DFTWHRRYGHGVSEEDKGFGPIFEEQPINTIYPEESLEGKVSLNCRARASPFPVYKWRMNNGDVDLTNDRYSMVGGNLVINNPDKQKDAGVYYCLASNNYGMVRSTEATLSFGYLDPFPPEERPEVKVKEGKGMVLLCDPPYHFPDDLSYRWLLNEFPVFITMDKRRFVSQTNGNLYIANVESSDRGNYSCFVSSPSITKSVFSKFIPLIPIPERTTKPYPADIVVQFKDIYTMMGQNVTLECFALGNPVPDIRWRKVLEPMPSTAEISTSGAVLKIFNIQLEDEGLYECEAENIRGKDKHQARIYVQAFPEWVEHINDTEVDIGSDLYWPCIATGKPIPTIRWLKNGYSYHKGELRLYDVTFENAGMYQCIAENAYGSIYANAELKILALAPTFEMNPMKKKILAAKGGRVIIECKPKAAPKPKFSWSKGTEWLVNSSRILIWEDGSLEINNITRNDGGIYTCFAENNRGKANSTGTLVITNPTRIILAPINADITVGENATMQCAASFDPALDLTFVWSFNGYVIDFNKEITHIHYQRNFMLDANGELLIRNAQLKHAGRYTCTAQTIVDNSSASADLVVRGPPGPPGGLRIEDIRATSVALTWSRGSDNHSPISKYTIQTKTILSDDWKDAKTDPPIIEGNMESAKAVDLIPWMEYEFRVVATNTLGTGEPSIPSNRIKTDGAAPNVAPSDVGGGGGTNRELTITWAPLSREYHYGNNFGYIVAFKPFDGEEWKKVTVTNPDTGRYVHKDETMTPSTAFQVKVKAFNNKGDGPYSLVAVINSAQDAPSEAPTEVGVKVLSSSEISVHWKHVLEKIVESYQIRYWAGHDKEAAAHRVQVTSQEYSARLENLLPDTQYFIEVGACNSAGCGPSSDVIETFTRKAPPSQPPRIISSVRSGSRYIITWDHVVALSNESTVTGYKILYRPDGQHDGKLFSTHKHSIEVPIPRDGEYVVEVRAHSDGGDGVVSQVKISGVSTLS
B2: neural cell adhesion molecule 2 (NCAM2) (protein, UniProt O35136 20-837)
chain: LLQVTISLSKVELSVGESKFFTCTAIGEPESIDWYNPQGEKIISTQRVMLQKEGVRSRLTIYNANIEDAGIYRCQATDAKGQTQEATVVLEIYQKLTFREVVSPQEFKQGEDAEVVCRVSSSPAPAVSWLYHNEEVTTIPDNRFAVLANNNLQILNINKSDEGIYRCEGRVEARGEIDFRDIIVIVNVPPAIMMPQKSFNATAERGEEMTLTCKASGSPDPTISWFRNGKLIEENEKYILKGSNTELTVRNIINKDGGSYVCKATNKAGEDQKQAFLQVFVQPHILQLKNETTSENGHVTLVCEAEGEPVPEITWKRAIDGVMFSEGDKSPDGRIEVKGQHGRSSLHIRDVKLSDSGRYDCEAASRIGGHQRSMHLDIEYAPKFVSNQTMYYSWEGNPINISCDVTANPPASIHWRREKLLLPAKNTTHLKTHSVGRKMILEIAPTSDNDFGRYNCTATNRIGTRFQEYILELADVPSSPHGVKIIELSQTTAKISFNKPESHGGVPIHHYQVDVKEVASETWKIVRSHGVQTMVVLSSLEPNTTYEIRVAAVNGKGQGDYSKIEIFQTLPVREPSPPSIHGQPSSGKSFKISITKQDDGGAPILEYIVKYRSKDKEDQWLEKKVQGNKDHIILEHLQWTMGYEVQITAANRLGYSEPTVYEFSMPPKPNIIKDTLFNGLGLGAIIGLGVAALLLILVVTDVSCFFIRQCGLLMCITRRMCGKKSGSSGKSKELEEGKAAYLKDGSKEPIVEMRTEDERITNHEDGSPVNEPNETTPLTEPEKLPLKEENGKEVLNAETIEIKVSNDIIQSKEDDIKA

Tests used:
[1] = target: mouse prion protein (MoPrP) (mouse (endogenous in C57BL/6 brain)) (UniProt P04925); assay: affinity purification with mass spectrometry
[2] = target: mouse prion protein (MoPrP) (mouse (endogenous in C57BL/6 brain)) (UniProt P04925); assay: affinity purification with mass spectrometry; remark: listed apart in the source

| Molecule | binding [1] | binding [2] |
| --- | --- | --- |
| neural cell adhesion molecule 1 (NCAM1) (from UniProt P13595 20-1115) | binds | – |
| B1 | – | binds |
| B2 | – | binds |
